These are yes or no findings as the source states them, for the method shown. Some results given as binding are weak or reduced against the parent protein; the word gives no strength.

Chains of the proteins cited; added tags and fusions are not shown. Lines headed by an entry give the natural chain unless they say otherwise; changes in a name come on top.
UniProt Q00022: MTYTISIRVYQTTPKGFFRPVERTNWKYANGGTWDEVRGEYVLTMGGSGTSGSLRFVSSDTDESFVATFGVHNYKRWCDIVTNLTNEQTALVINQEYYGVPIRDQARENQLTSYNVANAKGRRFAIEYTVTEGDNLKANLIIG
UniProt A8NSH3: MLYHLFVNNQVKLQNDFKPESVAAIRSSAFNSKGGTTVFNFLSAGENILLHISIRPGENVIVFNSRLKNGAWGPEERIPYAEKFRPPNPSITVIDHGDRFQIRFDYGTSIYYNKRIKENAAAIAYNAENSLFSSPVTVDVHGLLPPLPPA

The target of assay [1] is T1, podocalyxin (glycoprotein secreted into the culture supernatant of undifferentiated ES/iPS cells) (human) (UniProt O00592).
T1 sequence (looked up): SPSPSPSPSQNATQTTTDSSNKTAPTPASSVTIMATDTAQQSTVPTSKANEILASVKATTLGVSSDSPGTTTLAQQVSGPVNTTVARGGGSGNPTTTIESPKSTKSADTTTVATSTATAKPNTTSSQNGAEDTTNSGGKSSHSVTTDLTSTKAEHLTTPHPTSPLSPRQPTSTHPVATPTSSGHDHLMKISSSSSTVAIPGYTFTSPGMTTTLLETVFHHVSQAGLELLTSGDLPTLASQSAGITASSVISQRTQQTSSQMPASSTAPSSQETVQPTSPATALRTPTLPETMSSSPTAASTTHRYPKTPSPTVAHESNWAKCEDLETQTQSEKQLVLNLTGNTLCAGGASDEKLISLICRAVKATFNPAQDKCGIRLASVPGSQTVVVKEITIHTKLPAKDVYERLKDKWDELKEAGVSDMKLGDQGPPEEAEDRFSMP
The experiment in a line: lectin blot of the fraction of ES/iPS culture supernatant bound to rBC2LCN beads.

Assay [2] addresses T1, podocalyxin (glycoprotein secreted into the culture supernatant of undifferentiated ES/iPS cells) (human). Put plainly: sandwich ELISA, biotinylated rBC2LCN on streptavidin plate, HRP-labelled detection lectin, A450. For orientation: An ELISA detects its analyte on a solid surface through an enzyme-linked reagent.
The target is the same in assay [3]. Put plainly: Cy3-labelled lectin overlay on marker captured from iPS culture supernatant by immobilised rBC2LCN.
Assay [4] shares this target. Put plainly: lectin-lectin sandwich on glass slide, biotinylated rAAL as detection lectin on marker captured by rBC2LCN.

Turning to “rABA (recombinant Agaricus bisporus lectin) (from UniProt Q00022 2-143)”, the binding result in assay [1], in assay [2] and in assay [3] was “binds” in each case.
For “rCGL2 (recombinant Coprinopsis cinerea lectin CGL2) (from UniProt A8NSH3 1-150)”, the binding result in assay [2] and in assay [3] was “binds” in each case.

B1: rAAL (recombinant Aleuria aurantia lectin) (protein, UniProt P18891 2-313, looked up)
chain: PTEFLYTSKIAAISWAATGGRQQRVYFQDLNGKIREAQRGGDNPWTGGSSQNVIGEAKLFSPLAAVTWKSAQGIQIRVYCVNKDNILSEFVYDGSKWITGQLGSVGVKVGSNSKLAALQWGGSESAPPNIRVYYQKSNGSGSSIHEYVWSGKWTAGASFGSTVPGTGIGATAIGPGRLRIYYQATDNKIREHCWDSNSWYVGGFSASASAGVSIAAISWGSTPNIRVYWQKGREELYEAAYGGSWNTPGQIKDASRPTPSLPDTFIAANSSGNIDISVFFQASGVSLQQWQWISGKGWSIGAVVPTGTPAGW
As for B1, the binding result in assay [4] and in assay [3] was “binds” each time.
